Source: PubChem BioAssay AID1508597 (Cure First, 2020)

Aim: 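Genes whose silencing sensitises or protects ovarian cancer cells against rucaparib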 (primary screen)
Cells: human ovarian carcinoma lines grown from tumours: OCI-P5x (papillary serous) and OCI-C5x (clear cell)
Reagent: siRNA pool against human genes, 1.25 pmol siRNA per well
Duration: 72 h or 96 h, depending on the cell culture
Challenge: rucaparib 20 µM (about IC30) or vehicle, present until read-out
Rucaparib or vehicle: Rucaparib
Cell line: OCI-C5x (clear cell)
Detection: 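ATP luminescence measured at 72 or 96 h according to the culture, then normalised and expressed as percent viability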
Reading the numbers: viability, normalised: higher = more viable cells remaining
Call rule: 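Active when normalised viability falls below 80 percent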
Meaning of the calls: active = viability under 80%; inactive = viability 80% or more
Shown is an unselected part of the about 2,100 reagents, in one setting of the screen. 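Calls flag viability under 80% in either arm, not effects specific to rucaparib; the reference for percent is not stated.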 A reagent listed more than once was tested more than once; the source does not tell the runs apart. Not given: the 100% reference.

target | technical replicate | viability, normalised (%) | Outcome
RABGGTA (GeneID 5875) | 1 | 50.7 | active
RABGGTA (GeneID 5875) | 2 | 30.5 | active
RABGGTA (GeneID 5875) | 3 | 26.1 | active
KAT6B (GeneID 23522) | 1 | 30.6 | active
KAT6B (GeneID 23522) | 2 | 33.7 | active
KAT6B (GeneID 23522) | 3 | 34.2 | active
RCOR2 (GeneID 283248) | 1 | 48.7 | active
RCOR2 (GeneID 283248) | 2 | 49 | active
RCOR2 (GeneID 283248) | 3 | 37.6 | active
NME5 (GeneID 8382) | 1 | 51.8 | active
NME5 (GeneID 8382) | 1 | 62 | active
NME5 (GeneID 8382) | 2 | 63.4 | active
NME5 (GeneID 8382) | 2 | 61.9 | active
NME5 (GeneID 8382) | 3 | 59.8 | active
NME5 (GeneID 8382) | 3 | 54.9 | active
PDCD2L (GeneID 84306) | 1 | 55.3 | active
PDCD2L (GeneID 84306) | 2 | 44 | active
PDCD2L (GeneID 84306) | 3 | 49.4 | active
GAD1 (GeneID 2571) | 1 | 48.5 | active
GAD1 (GeneID 2571) | 2 | 38.8 | active
GAD1 (GeneID 2571) | 3 | 42 | active
RASGRF1 (GeneID 5923) | 1 | 74.4 | active
RASGRF1 (GeneID 5923) | 2 | 52.8 | active
RASGRF1 (GeneID 5923) | 3 | 60.4 | active

Targets above whose target name begins with R or r (9):
target | technical replicate | viability, normalised (%) | Outcome
RABGGTA (GeneID 5875) | 1 | 50.7 | active
RABGGTA (GeneID 5875) | 2 | 30.5 | active
RABGGTA (GeneID 5875) | 3 | 26.1 | active
RCOR2 (GeneID 283248) | 1 | 48.7 | active
RCOR2 (GeneID 283248) | 2 | 49 | active
RCOR2 (GeneID 283248) | 3 | 37.6 | active
RASGRF1 (GeneID 5923) | 1 | 74.4 | active
RASGRF1 (GeneID 5923) | 2 | 52.8 | active
RASGRF1 (GeneID 5923) | 3 | 60.4 | active

The results go on.
target | technical replicate | viability, normalised (%) | Outcome
PKLR (GeneID 5313) | 1 | 65.3 | active
PKLR (GeneID 5313) | 2 | 46.2 | active
PKLR (GeneID 5313) | 3 | 66.5 | active
INSRR (GeneID 3645) | 1 | 48.9 | active
INSRR (GeneID 3645) | 2 | 43.9 | active
INSRR (GeneID 3645) | 3 | 42.7 | active
SMC4 (GeneID 10051) | 1 | 47.1 | active
SMC4 (GeneID 10051) | 2 | 40.4 | active
SMC4 (GeneID 10051) | 3 | 45.6 | active
TGFBR2 (GeneID 7048) | 1 | 44.8 | active
TGFBR2 (GeneID 7048) | 2 | 56.4 | active
TGFBR2 (GeneID 7048) | 3 | 49.1 | active
DROSHA (GeneID 29102) | 1 | 49.4 | active
DROSHA (GeneID 29102) | 2 | 35.1 | active
DROSHA (GeneID 29102) | 3 | 57.5 | active
SOX9 (GeneID 6662) | 1 | 60.9 | active
SOX9 (GeneID 6662) | 2 | 53.2 | active
SOX9 (GeneID 6662) | 3 | 50.2 | active
GEN1 (GeneID 348654) | 1 | 84.5 | inactive
GEN1 (GeneID 348654) | 2 | 70 | active
GEN1 (GeneID 348654) | 3 | 96.4 | inactive
USP1 (GeneID 7398) | 1 | 42 | active
USP1 (GeneID 7398) | 2 | 47.5 | active
USP1 (GeneID 7398) | 3 | 43.8 | active
NEK5 (GeneID 341676) | 1 | 56.2 | active
NEK5 (GeneID 341676) | 2 | 61.3 | active
NEK5 (GeneID 341676) | 3 | 64 | active
NRK (GeneID 203447) | 1 | 60.1 | active
NRK (GeneID 203447) | 2 | 47.3 | active
NRK (GeneID 203447) | 3 | 52.4 | active
TFAP2A (GeneID 7020) | 1 | 62 | active
TFAP2A (GeneID 7020) | 2 | 72 | active
TFAP2A (GeneID 7020) | 3 | 60.6 | active
